This note sets out measurements from article PMC12186257, “Serendipitous and Systematic Chemoproteomic Discovery of MBLAC2, HINT1, and NME1‑4 Inhibitors from Histone Deacetylase-Targeting Pharmacophores” (ACS Chemical Biology, 2025).

The data set has as its system compound-binding proteins such as HDACs, MBLAC2, ISOC1/2, ALDH2, and GATD3A. The experiment in a line: chemoproteomic competition assay, proteome-wide target binding profile. The settings on record: Figure 1e; combined data from this study and a previous profiling. Also noted: species or system human. The protocol: MBLAC2 is a metalloenzyme predicted to harbor one or two Zn^2+ ions in its active site. […] In this assay, compounds of interest are incubated at increasing concentrations with a mixture of lysates of MV4–11 and SW620 cells. The compound-treated lysates are then mixed with bead-immobilized hydroxamic acid-containing compounds iA, iC, and iQ (immobilized Quisinostat), which pull down compound-binding proteins such as HDACs, MBLAC2, ISOC1/2, ALDH2, and GATD3A (Figure a) that can be identified and quantified by mass spectrometry (MS). Proteins targeted by the library compounds in a preincubation step are prevented from being pulled down by the immobilized probes, leading to a dose-dependent reduction in MS signal. Initially, 12 metal-chelating compounds were profiled at two concentrations (10 μM and 100 μM) (Figure S3).
Chemoproteomic competition assays
Sample preparation. For the MBLAC2 and HDAC inhibitor competition assay, the generation of affinity matrices, lysate generation, pulldown assay, and sample preparation were performed as described in detail in REF1. For the kinobeads assay, the generation of affinity matrices, lysate generation, pulldown assay, and sample preparation were performed as described in detail in REF2.
LC-MS/MS. The different sample types were measured with different LC-MS/MS settings. MBLAC2 2-dose competition assays were measured with the Lumos1 setup, MBLAC2 9-dose competition assays were measured with the Lumos2 setup, and kinobeads assays were measured with the Eclipse setup.
Peptides were analyzed via LC–MS/MS on a Dionex Ultimate3000 nano HPLC coupled to either one of two Orbitrap Fusion Lumos mass spectrometers, or to an Orbitrap Eclipse mass spectrometer, operated via the Thermo Scientific Xcalibur software.
In the all setups, peptides were loaded on a trap column (100 μm × 2 cm, packed in-house with Reprosil-Gold C18 ODS-3 5 μm resin, Dr. Maisch, Ammerbuch) and washed with 5 μL/min solvent A (0.1% formic acid in HPLC grade water) for 10 min. Peptides were then separated on an analytical column (75 μm × 40 cm, packed in-house with Reprosil-Gold C18 3μm resin, Dr. Maisch, Ammerbuch) using a 50 min gradient ranging from 4 to 32% solvent B (0.1% formic acid, 5% DMSO in acetonitrile) in solvent A (0.1% formic acid, 5% DMSO in HPLC grade water) at a flow rate of 300 nL/min.
The mass spectrometers were operated in data-dependent mode, automatically switching between MS1 and MS2 spectra. […]
In Lumos settings, up to 12 peptide precursors were isolated in (isolation width of 1.2 Th for Lumos1 and 1.7 for Lumos2, maximum injection time of 75 ms, AGC value of 1e5 for Lumos1 and 2e5 for Lumos2), fragmented by HCD using 30% normalized collision energy (NCE) and analyzed in the Orbitrap at a resolution of 15,000 (Lumos2) or 30,000 (Lumos1). […]
As for `O=C(NO)c1ccc(Cn2c(=O)n(CCc3ccccc3)c(=O)c3ccccc32)cc1` [Compound J22352], the “order of target affinity” value was “MBLAC2>HDAC6”.

Regarding `CCCCN(Cc1ccc(C(=O)NO)cc1)C(=O)Nc1ccccc1` [Nexturastat A], the “order of target affinity” value was “MBLAC2>HDAC6>HDAC10”.

Take `O=C(NO)c1ccc(CN2CCCc3cc(Cl)ccc32)cc1` [SW-100]: the “order of target affinity” value is “MBLAC2>>HDAC6>>HDAC10”.

As to `CN1CCc2c(c3ccccc3n2Cc2ccc(C(=O)NO)cc2)C1` [Tubastatin A, reference compound], the “order of target affinity” value is given as “HDAC10>MBLAC2>HDAC6”.
